Test results taken from paper PMC11705628.
These are yes or no findings as the source states them, for the method shown. Binding seen in cells or lysates may run through a third protein. Some binding calls cover weakened binding; strength is not graded here.

Chains of the proteins cited; added tags and fusions are not shown.
UniProt Q9GZN2: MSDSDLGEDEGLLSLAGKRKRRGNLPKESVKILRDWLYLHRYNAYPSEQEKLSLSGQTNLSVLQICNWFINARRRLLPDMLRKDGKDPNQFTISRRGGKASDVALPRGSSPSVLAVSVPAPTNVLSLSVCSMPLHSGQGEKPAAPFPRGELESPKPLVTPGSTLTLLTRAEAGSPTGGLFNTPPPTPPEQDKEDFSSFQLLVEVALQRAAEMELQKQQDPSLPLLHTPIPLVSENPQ
UniProt Q15796: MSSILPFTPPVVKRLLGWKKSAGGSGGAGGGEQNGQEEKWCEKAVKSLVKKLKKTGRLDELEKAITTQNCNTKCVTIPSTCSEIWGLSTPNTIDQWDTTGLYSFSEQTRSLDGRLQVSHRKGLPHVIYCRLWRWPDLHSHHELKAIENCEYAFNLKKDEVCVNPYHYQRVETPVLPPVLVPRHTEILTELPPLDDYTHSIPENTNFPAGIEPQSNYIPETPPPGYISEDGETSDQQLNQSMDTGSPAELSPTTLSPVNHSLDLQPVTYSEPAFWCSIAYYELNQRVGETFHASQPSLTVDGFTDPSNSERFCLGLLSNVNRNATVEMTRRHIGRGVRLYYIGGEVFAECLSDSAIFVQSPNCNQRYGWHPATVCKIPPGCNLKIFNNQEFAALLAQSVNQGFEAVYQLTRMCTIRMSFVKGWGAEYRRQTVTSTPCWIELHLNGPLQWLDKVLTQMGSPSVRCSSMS

Molecular target: TGF-β-induced factor homeobox 2 (human (endogenous in BxPC-3)) (UniProt Q9GZN2)
Test: co-IP; lysate of BxPC-3 (RIPA lysis buffer; legend: PANC-1 and BxPC-3 cells); TGIF2 antibodies with magnetic beads, overnight at 4°C; immunocomplex boiled in WB loading buffer; input and IgG as controls

binding: binds
Substance: SMAD family member 2 (from UniProt Q15796 1-467)
